# Laboratory results published in PubChem BioAssay (NCATS).
# Where “and” joins values, the source holds several entries; their conditions need not be identical. Identical values can stand only once. Inconclusive means that the source gave no clear call. Such entries were picked first, then a sample of the others. Potencies of inconclusive entries are doubtful fits and often do not repeat. Calls of active or inactive are those of the source. The call rests on the fitted dose curve; in most records, active means well fitted curve in the direction sought with a large enough effect; inconclusive means small, poorly fitted or top-dose-only effect, or another doubt; inactive means no such curve, though single readings can be large; an effect the other way counts as inactive or inconclusive.
# Assay: qHTS of pediatric cancer cell lines to identify multiple opportunities for drug repurposing: Confirmatory screen for Rh18 cells (AID 1347125)
# Details: Rh18 rhabdomyosarcoma cells, viability; series mostly up to 45.9 µM
# How it was run: (§1)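 Cells (500-1,000/well) rested 5 h, then received compounds for 48 h; metabolically active cells were measured by CellTiter-Glo luminescence. Final concentrations spanned up to 46 µM (MIPE, 11-point) or 0.59 nM-46 µM (NPC, 8-point) in primary screens, 11-point in follow-ups.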
# Further: nearly all actives have a fitted effect of over 55% in size.
# Potency means the concentration at half of the fitted maximal effect.
row,Structure (SMILES),Potency
1,Nc1ncn([C@@H]2O[C@H](CO)[C@@H](O)[C@@H]2O)c(=O)n1,active: 20.8 µM
2,Cc1ccc(C(N)=O)cc1Nc1nccc(-c2cn(C(C)C)c3cnccc23)n1,"inconclusive: 26.9 µM [cytotoxic, partial curve, poor fit]"
3,CC[C@]1(O)C[C@@H]2CN(CCc3c([nH]c4ccccc34)[C@@](C(=O)OC)(c3cc4c(cc3OC)N(C)[C@H]3[C@@](O)(C(=O)OC)[C@H](OC(C)=O)[C@]5(CC)C=CCN6CC[C@]43[C@@H]65)C2)C1,"inconclusive: 82.7 nM [cytotoxic, single point] and inconclusive: 16.5 µM [cytotoxic, partial curve]"
4,C[C@H]1O[C@@H](O[C@H]2CC[C@@]3(C)[C@H](CC[C@@H]4[C@@H]3C[C@@H](O)[C@]3(C)[C@@H](C5=CC(=O)OC5)CC[C@]43O)C2)C[C@H](O)[C@@H]1O[C@H]1C[C@H](O)[C@H](O[C@H]2C[C@H](O)[C@H](O[C@@H]3O[C@H](CO)[C@@H](O)[C@H](O)[C@H]3O)[C@@H](C)O2)[C@@H](C)O1,"inconclusive: 0.165 µM [cytotoxic, full curve]"
5,O=C1NC(=O)C(c2cnc3ccccn23)=C1c1cn2c3c(cccc13)CN(C(=O)N1CCOCC1)CC2,inactive
6,Nc1ncnc2c1ncn2[C@@H]1O[C@H](CO)[C@@H](O)[C@@H]1O,"inconclusive: 7.37 µM [cytotoxic, full curve]"
7,NC(=O)Nc1cc(-c2ccc(CN3CCOCC3)cc2)sc1C(N)=O,"inconclusive: 11.7 µM [cytotoxic, partial curve]"
8,Cc1ncc(-c2ccnc(Nc3ccc(S(C)(=O)=O)cc3)n2)n1C(C)C,"inconclusive: 4.65 µM [cytotoxic, full curve]"
9,COc1cc(Nc2ncc(F)c(Nc3ccc4c(n3)N(COP(=O)(O)O)C(=O)C(C)(C)O4)n2)cc(OC)c1OC,"inconclusive: 4.65 µM [cytotoxic, partial curve]"
10,CO[C@@]12[C@H](COC(N)=O)C3=C(C(=O)C(C)=C(N)C3=O)N1C[C@@H]1N[C@@H]12,"inconclusive: 4.65 µM [cytotoxic, partial curve, poor fit]"
11,NC(=O)NO,inactive
12,CN(C)c1ccc(C(=C2C=CC(=[N+](C)C)C=C2)c2ccc(N(C)C)cc2)cc1,active: 1.47 µM

# Assay: qHTS of pediatric cancer cell lines to identify multiple opportunities for drug repurposing: Confirmatory screen for Rh30 cells (AID 1347126)
# Details: Rh30 rhabdomyosarcoma cell viability; series mostly up to 45.9 µM
# How it was run: as §1
row,Structure (SMILES),Potency
1,CC(C)C[C@H](NC(=O)CNC(=O)c1cc(Cl)ccc1Cl)B1OC(=O)CC(CC(=O)O)(C(=O)O)O1 (stereo partly specified),active: 2.33 µM
2,C[n+]1cc2c3c(ccc2c2ccc4cc5c(cc4c21)OCO5)OCO3,"inconclusive: 0.0005 µM [rising, full curve]"
3,CC(N[C@H]1CCCC[C@H]1NC(=O)c1ccc(Cl)cc1)c1cccc2ccccc12 (stereo partly specified),"inconclusive: 20.8 µM [cytotoxic, partial curve, poor fit]"
4,Nc1nc2c(c(=O)[nH]1)N(C=O)[C@H](CNc1ccc(C(=O)N[C@@H](CCC(=O)O)C(=O)O)cc1)CN2,inactive
5,CC(=O)OCC(=O)[C@@]1(O)[C@H](C)C[C@H]2[C@@H]3CCC4=CC(=O)C=C[C@]4(C)[C@@]3(F)[C@@H](O)C[C@@]21C,"inconclusive: 36.9 µM [cytotoxic, single point]"
6,COc1cc(C=CC(=O)CC(=O)C=Cc2ccc(O)c(OC)c2)ccc1O,"inconclusive: 0.0024 µM [rising, full curve]"
7,O=C(O)c1ccc(Nc2ncc3c(n2)-c2ccc(Cl)cc2C(c2c(F)cccc2F)=NC3)cc1,inactive
8,COC(=O)c1ccc2c(C(=Nc3ccc(N(C)C(=O)CN4CCN(C)CC4)cc3)c3ccccc3)c(O)[nH]c2c1,active: 16.5 µM
9,CCC(C=C[C@@H]1OC(=O)C=C[C@H]1C)=C[C@H](C)CC=CC(C)=C[C@@H](C)C(=O)[C@@H](C)[C@H](O)[C@@H](C)CC(C)=CC(=O)O,"inconclusive: 0.322 µM [cytotoxic, partial curve, poor fit]"
10,CCC(C)(C)C(=O)O[C@H]1C[C@@H](C)C=C2C=C[C@H](C)[C@H](CC[C@@H]3C[C@@H](O)CC(=O)O3)[C@H]21,active: 16.5 µM
11,Nc1[nH]nc2nnc(-c3c(-c4ccccc4)nn4ccccc34)cc12,"inconclusive: 29.3 µM [cytotoxic, single point]"
12,C#CCC(Cc1cnc2nc(N)nc(N)c2n1)c1ccc(C(=O)N[C@@H](CCC(=O)O)C(=O)O)cc1 (stereo partly specified),inactive
13,CCN1CCN(Cc2ccc(-c3cc4c(N[C@H](C)c5ccccc5)ncnc4[nH]3)cc2)CC1,active: 15.1 µM
14,Cc1ccc(C(N)=O)cc1Nc1nccc(-c2cn(C(C)C)c3cnccc23)n1,"inconclusive: 8.51 µM [cytotoxic, full curve]"
15,CC[C@]1(O)C[C@@H]2CN(CCc3c([nH]c4ccccc34)[C@@](C(=O)OC)(c3cc4c(cc3OC)N(C)[C@H]3[C@@](O)(C(=O)OC)[C@H](OC(C)=O)[C@]5(CC)C=CCN6CC[C@]43[C@@H]65)C2)C1,"inconclusive: 5.22 µM [cytotoxic, partial curve, poor fit] and inconclusive: 11.7 µM [cytotoxic, partial curve, poor fit]"
16,C[C@H]1O[C@@H](O[C@H]2CC[C@@]3(C)[C@H](CC[C@@H]4[C@@H]3C[C@@H](O)[C@]3(C)[C@@H](C5=CC(=O)OC5)CC[C@]43O)C2)C[C@H](O)[C@@H]1O[C@H]1C[C@H](O)[C@H](O[C@H]2C[C@H](O)[C@H](O[C@@H]3O[C@H](CO)[C@@H](O)[C@H](O)[C@H]3O)[C@@H](C)O2)[C@@H](C)O1,active: 0.414 µM
17,O=[N+]([O-])c1ccc(O)c2ncccc12,"inconclusive: 4.14 µM [cytotoxic, full curve, poor fit]"
18,O=C1NC(=O)C(c2cnc3ccccn23)=C1c1cn2c3c(cccc13)CN(C(=O)N1CCOCC1)CC2,inactive
19,Nc1ncnc2c1ncn2[C@@H]1O[C@H](CO)[C@@H](O)[C@@H]1O,active: 11.7 µM
20,NC(=O)Nc1cc(-c2ccc(CN3CCOCC3)cc2)sc1C(N)=O,"inconclusive: 0.0033 µM [rising, full curve]"
21,Cc1ncc(-c2ccnc(Nc3ccc(S(C)(=O)=O)cc3)n2)n1C(C)C,"inconclusive: 2.93 µM [cytotoxic, full curve]"
22,COc1cc(Nc2ncc(F)c(Nc3ccc4c(n3)N(COP(=O)(O)O)C(=O)C(C)(C)O4)n2)cc(OC)c1OC,active: 2.33 µM
23,Oc1cccc(-c2nc(N3CCOCC3)c3oc4ncccc4c3n2)c1,"inconclusive: 0.0013 µM [rising, full curve]"
24,NC(=O)NO,"inconclusive: 0.0737 µM [cytotoxic, full curve, poor fit]"
